Experimental findings from publication PMC5996148 are described below.

Common to all, as to experiment: protein microarray (ProtoArray v5.0), streptavidin-Alexa Fluor 647
Holding throughout (details): 3'-biotin; 20 mM Tris (pH 7.5), 5 mM MgCl2, 100 mM KCl, 0.1% Tween-20, A/T-rich and random oligonucleotide blockers; temperature not stated; high values mean tight binding

The test system of assay [1] is Mediator of RNA polymerase II transcription subunit 4 (human).
The test system of assay [2] is Melanocortin-2 receptor accessory protein (human).
The test system of assay [3] is Melanoma-associated antigen 3 (human).
Another assay concerns Melanoregulin (human).
In assay [4] the test system is Metal transporter CNNM3 (human).
The test system of assay [5] is Mitochondrial chaperone BCS1 (human).
Assay [6] relates to Mitochondrial coiled-coil domain protein 1 (human).
The test system of assay [7] is Mitochondrial import inner membrane translocase subunit TIM14 (human).
For assay [8], the system named is Mitogen-activated protein kinase 10 (human).
For assay [9], the system named is Myelin basic protein (human).

Some of the results follow.

Regarding “GGTGACAGGGGTATGGGGAGGGG [G4-2 biotinylated (Ct1)]”, the binding signal in assay [1] was -0.392 z-score; in assay [2] it was -0.376 z-score; in [3] it was -0.402 z-score; in the assay with Melanoregulin (human), -0.371 z-score; in assay [4], -0.366 z-score; in assay [5] it was -0.389 z-score. Besides, the binding signal in [6] is -0.375 z-score; in assay [7], 3.83 z-score; in assay [8], -0.392 z-score; in assay [9], -0.38 z-score.
